These are yes or no findings as the source states them, for the method shown. Binding seen in cells or lysates may run through a third protein. Some binding calls cover weakened binding; strength is not graded here.
Biological target: T1, Elba3 (Drosophila melanogaster (endogenous in embryos)) (UniProt Q9VR19)
T1 sequence: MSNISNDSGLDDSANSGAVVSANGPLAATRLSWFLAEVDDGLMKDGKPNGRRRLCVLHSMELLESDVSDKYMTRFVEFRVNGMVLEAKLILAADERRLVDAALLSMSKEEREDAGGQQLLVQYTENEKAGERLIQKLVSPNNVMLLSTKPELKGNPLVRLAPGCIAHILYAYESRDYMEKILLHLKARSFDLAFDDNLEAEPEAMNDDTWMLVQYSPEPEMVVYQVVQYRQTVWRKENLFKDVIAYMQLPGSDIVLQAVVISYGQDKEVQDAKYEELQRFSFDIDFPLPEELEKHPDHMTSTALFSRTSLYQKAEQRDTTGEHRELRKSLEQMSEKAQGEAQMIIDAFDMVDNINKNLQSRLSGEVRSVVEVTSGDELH
Experiment: co-IP; sequential depletion co-immunoprecipitation from 2-4 h embryo extracts (20 mM Tris pH 8.0, 150 mM NaCl, 10 mM MgCl2, 2 mM EDTA, 10% glycerol, 0.5% NP-40, 1 mM DTT); first round with rabbit anti-Elba1, anti-Elba3 or IgG, second round from the supernatant; western blot

binding: binds
B1: Elba1 (protein, UniProt Q9VR17 1-363)
chain: MINRRQRLEFALTLLPYDPETVQLSETQKKVEAIIARLRTDDSFTEEESDDCKVRRIQDANEFADSAMRHIEMSDSGKLSTLETLTLAAEKLLRTQRSPDQDFDDMVQDVEYSQLMRNTIQAVNEARLKLLQQWERSKRKALDLLTIEIEKVQEMDQEPEHKQSHEQDQDQEQSSEPFNAFRDGADEHNTSTPKTNDEDLGLDDDDEDYVPGGEETMGNKRKRIKKPVTSTPNAKRRCPGFEFDLDGESPMVTIGPNGTEVSRISLSAINWDMTGPSITRKLLCEIFDRDTLAHHTLSGKPSPAFRDCARPSKQQLDPLKVADLVYLMTNSLDMTPREVRTAITTKCADENKMLRSRMQRKSK

From PMC6911014
